From the supplement of paper PMC11637464
Structures can show the parent of a compound that is named as a salt. This is one part of the list. Many values rest on one well or one pass, so single values are uncertain.

Tested on: primary mouse Muller glia with Ascl1 overexpression
Assay: progenitor-like (ProL) cell count fold change vs Ascl1-only control (log2 fold change); higher = more progenitor-like cells
Conditions: collection day: 2
Protocol: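 Primary P11 mouse Muller glia carrying dox-inducible Ascl1 were treated with Tocriscreen Stem Cell Library compounds at 0.1, 1 or 10 uM together with doxycycline for 5 days, then profiled by sci-Plex hashing and sci-RNA-seq2. Cells were annotated by marker genes and cell-type counts per well were size-factor adjusted. Read-outs are the log2 fold change of Neuronal (NeuPre + bipolar) and ProL cell counts versus the Ascl1-only control wells of the same collection day, plus the raw number of recovered cells per well. There is one well per dose, and wells with fewer than 20 cells were discarded.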

## N[C@@H]1C[C@H]1c1ccccc1 [Tranylcypromine hydrochloride]
0.1 µM
  progenitor-like (log2): 0.0317
1 µM
  progenitor-like (log2): 0.366
10 µM
  progenitor-like (log2): 0.341

## COc1ccc(N(C(=O)Oc2c(C)cccc2C)c2ccnc(Nc3ccc(N4CCN(C)CC4)cc3)n2)c(OC)c1
0.1 µM
  progenitor-like (log2): 0
1 µM
  progenitor-like (log2): -0.322

## Cc1sc2c(c1C)C(c1ccc(Cl)cc1)=N[C@@H](CC(N)=O)c1nnc(C)n1-2
0.1 µM
  progenitor-like (log2): 0.316
1 µM
  progenitor-like (log2): 0.462
10 µM
  progenitor-like (log2): -0.17
